{"sequences": {"note": "Protein sequences, listed by entry. Tags and fused reporters are not part of them. Residues count along the entry.", "UniProt P08637, residues 17-254": "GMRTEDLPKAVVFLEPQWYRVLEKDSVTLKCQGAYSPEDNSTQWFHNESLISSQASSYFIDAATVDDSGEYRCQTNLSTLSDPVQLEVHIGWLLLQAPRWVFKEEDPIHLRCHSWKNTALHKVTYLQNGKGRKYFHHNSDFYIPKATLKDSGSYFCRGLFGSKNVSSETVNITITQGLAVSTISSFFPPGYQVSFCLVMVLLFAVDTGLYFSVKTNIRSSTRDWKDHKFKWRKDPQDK"}, "source": "patent US20140294825A1", "binders": {"B1": {"name": "Ch9G6-IgG3D (antibody)", "heavy": "QVQLQQSGPELVKPGASVKISCKASGYTFSTSWMNWVKQRPGQGLEWIGRIYPGDGDTNYNGKFKGKATLTADKSSNTAYMQLSSLTSVDSAVYFCERFYYGNTFAMDYWGQGTSVTVSSASTKGPSVFPLAPCSRSTSGGTAALGCLVKDYFPEPVTVSWNSGALTSGVHTFPAVLQSSGLYSLSSVVTVPSSSLGTQTYTCNVNHKPSNTKVDKRVEPKSCDTPPPCPRCPAPELLGGPSVFLFPPKPKDTLMISRTPEVTCVVVDVSHEDPEVQFKWYVDGVEVHNAKTKPREEQYNSTFRVVSVLTVLHQDWLNGKEYKCKVSNKALPAPIEKTISKTKGQPREPQVYTLPPSREEMTKNQVSLTCLVKGFYPSDIAVEWESSGQPENNYNTTPPMLDSDGSFFLYSKLTVDKSRWQQGNIFSCSVMHEALHNRFTQKSLSLSPGK", "light": "DVLMTQIPLSLPVSLGDQASISCRSSQSIVHSNGNTYLEWYLQKPGQSPKLLIYKVSNRFSGVPDRFSGSGSGTDFTLKISRVEAEDLGVYYCFQGSHVPFTFGSGTKLEIKRTVAAPSVFIFPPSDEQLKSGTASVVCLLNNFYPREAKVQWKVDNALQSGNSQESVTEQDSKDSTYSLSSTLTLSKADYEKHKVYACEVTHQGLSSPVTKSFNRGEC"}, "B2": {"name": "Ch9G6-MVIgG3D (antibody)", "heavy": "QVQLQQSGPELVKPGASVKISCKASGYTFSTSWMNWVKQRPGQGLEWIGRIYPGDGDTNYNGKFKGKATLTADKSSNTAYMQLSSLTSVDSAVYFCERFYYGNTFAMDYWGQGTSVTVSSASTKGPSVFPLAPCSRSTSGGTAALGCLVKDYFPEPVTVSWNSGALTSGVHTFPAVLQSSGLYSLSSVVTVPSSSLGTQTYTCNVNHKPSNTKVDKRVEPKSCDTPPPCPRCPAPELLGGPSVFLFPPKPKDTLMISRTPEVTCVVVDVSHEDPEVQFKWYVDGVEVHNAKTKPREEQYNSTFRVVSVLTVLHQDWLNGKEYKCKVSNKALPAPIEKTISKTKGQPREPQVYTLPPSREEMTKNQVSLTCLVKGFYPSDIAVEWESSGQPENNYNTTPPMLDSDGSFFLYSKLTVDKSRWQQGNIFSCSVMHEALHNRFTQKSLSLSPGKDQDTAIRVFAIPPSFASIFLTKSTKLTCLVTDLTTYDSVTISWTRQNGEAVKTHTNISESHPNATFSAVGEASICEDDWNSGERFTCTVTHTDLPSPLKQTISRPKGVALHRPDVYLLPPAREQLNLRESATITCLVTGFSPADVFVQWMQRGQPLSPEKYVTSAPMPEPQAPGRYFAHSILTVSEEEWNTGETYTCVVAHEALPNRVTERTVDKSTGKPTLYNVSLVMSDTAGTCY", "light": "B1 light"}}, "target": "human CD16 (human) (UniProt P08637)", "assay": "flow cytometry on HEK293 cells transiently expressing human CD16, 1 µg/ml antibody", "note": "Results are given in words; binding and its absence hold for the method and conditions named. Some results given as binding are weak or reduced against the parent protein; the word gives no strength.", "data": [{"binder": "B1", "values": [{"measurement": "binding", "value": "binds"}]}, {"binder": "B2", "values": [{"measurement": "binding", "value": "binds"}]}]}
